According to paper PMC4022651, “Substitutional Analysis of the C-Terminal Domain of AbrB Revealed Its Essential Role in DNA-Binding Activity”:
Changes are numbered by the printed parent chain. No signal at the amounts used counts as a negative. At least one verdict was read from the data and is not stated in words by the source. For part of these data: Where a protein sequence is shown, tags need not be part of it.

Key:
Experiment in all cases: EMSA
Settings in all cases: up to 4 uM; 20 mM Tris-HCl pH 8, 100 mM KCl, 5 mM MgCl2, 1 mM DTT, 10% glycerol, 0.1 mg/ml poly(dI-dC), room temperature, 20 min; 1.14 nM phyC or 0.95 nM sinIR DNA; recombinant protein; residues 3-96; protein details: His6; label: 5'-32P
[1] = molecular target: T1, AbrB E77A E79A (Bacillus subtilis 168) (UniProt P08874)
T1 sequence (looked up): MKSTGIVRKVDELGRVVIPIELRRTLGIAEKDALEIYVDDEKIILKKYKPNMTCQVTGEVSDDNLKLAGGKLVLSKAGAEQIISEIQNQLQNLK

[2] = molecular target: T2, AbrB Q55A Q57A (Bacillus subtilis 168) (UniProt P08874)
T2 sequence (looked up): T1 sequence (looked up) with Q55A, A77E

[3] = molecular target: T3, AbrB N88D N90D (Bacillus subtilis 168) (UniProt P08874)
T3 sequence (looked up): T1 sequence (looked up) with A77E, N88D

[4] = molecular target: T4, AbrB N88A N90A (Bacillus subtilis 168) (UniProt P08874)
T4 sequence (looked up): T1 sequence (looked up) with A77E, N88A

[5] = molecular target: AbrB Q89A Q91A (Bacillus subtilis 168) (UniProt P08874)
[6] = molecular target: T5, AbrB K76A K78A (Bacillus subtilis 168) (UniProt P08874)
T5 sequence (looked up): T1 sequence (looked up) with K76A, A77E

Measured: binding result

GTGATTTAATGGCAAATGACTTCCAGAGACTAATGA (double strand) [sinIR P1 AbrB site 36 bp]
no binding: all assays above
